# Reference: PubChem BioAssay AID540276 (National Center for Advancing Translational Sciences (NCATS), 2011)
# Several values for one entry are separate records, joined by “and”; a condition that tells them apart may be missing. Equal entries are not always repeated. Among all 300,000 compounds or so, about 5,400 (1.8%) were called active. The shares of active, inactive and inconclusive entries below differ from those in the screen. The call rests on the fitted dose curve; tested in HEK293 cells. Potencies of inconclusive entries are doubtful fits and often do not repeat.
# Test: qHTS for inhibitors of binding or entry into cells for Marburg Virus
# Conditions: Marburg virus pseudotyped entry inhibition, cell reporter; activity change, negative = inhibition: at 37.8 µM (top of the series) unless noted
# On the % scale 0 is the no-effect control and ±100 the full control effect; potency means the concentration at half of the fitted maximal effect.
SMILES,"activity change, negative = inhibition",Potency
CCN(CC)c1ccc2c(C)c(CO)c(=O)oc2c1,inactive: 26% [at 46.1 µM],
O=C(Nc1cccc(Cl)c1)c1cc(S(=O)(=O)N2CCOCC2)cs1,,"inconclusive: 10 µM [inhibitor, partial curve, poor fit]"
COc1ccccc1Nc1nc(-c2cccs2)cs1,,"inconclusive: 14.6 µM [activator, partial curve, poor fit]"
N#Cc1cccc(NC(=O)CSc2cccc[n+]2[O-])c1,inactive: 3.75% [at 46.1 µM],
Cc1ccc(S(=O)(=O)N(C)CC(=O)N2CCCCCCC2)cc1,inactive: 12.7% [at 46.1 µM],
CC(=O)c1c(C)[nH]c(C(=O)OCC(=O)Nc2cc(Cl)ccc2[N+](=O)[O-])c1C,inactive: -2.29%,
CCCC1S/C(=N/N=C/c2cccs2)NC1=O (stereo not given),,"inconclusive: 3.16 µM [activator, full curve, poor fit]"
CC(=O)Nc1cccc(NC(=O)CSc2ncc(C(=O)Nc3ccccc3)c(=O)n2C)c1,,"inconclusive: 3.55 µM [inhibitor, single point]"
Cc1cccc(-c2nnn(Cc3nnc(NC(=O)c4ccccc4)s3)n2)c1,inactive: -8.02%,
NC(=O)C1CCN(C(=O)CSc2nc3ccccc3o2)CC1,inactive: 19.9%,
Cc1cccc(NC(=S)N/N=C/C(C)c2ccccc2)c1C (stereo not given),,"inconclusive: 35.5 µM [inhibitor, single point]"
O=C(O)CCC(=O)N1CCN(c2nc3ccccc3s2)CC1,inactive: 0%,
CC(C)OC(=O)c1nn2c(C(F)(F)F)cc(-c3ccc(Br)o3)nc2c1Br,,"inconclusive: 16.4 µM [inhibitor, single point]"
O=C(COC(=O)C12CC3CC(CC(C3)C1)C2)Nc1ccccc1F,,"inconclusive: 0.501 µM [inhibitor, partial curve, poor fit]"
Cc1cccc(C)c1NS(=O)(=O)c1ccc(OCCNS(C)(=O)=O)cc1,inactive: -21.3% [at 46.1 µM],
COc1cc2c(cc1OC)C1O[C@](c3ccsc3)(C2)Oc2cc(-c3ccccc3)oc(=O)c21,,"inconclusive: 0.0119 µM [inhibitor, full curve, poor fit]"
COc1ccc(C)cc1S(=O)(=O)N(CC(=O)Nc1ccc2c(c1)OCCO2)Cc1ccccc1,,"inconclusive: 16.4 µM [inhibitor, partial curve]"
COc1ccccc1C(=O)COC(=O)CN1C(=O)C2CC=CCC2C1=O (stereo not given),inactive: -1.8% [at 46.1 µM],
O=[N+]([O-])c1cccc(S(=O)(=O)NCc2ccncc2)c1,inactive: -3.83% [at 46.1 µM],
O=C(Cc1cccs1)N(Cc1ccco1)C1(C(=O)NC2CCCCC2)CCCCC1,,"inconclusive: 0.651 µM [inhibitor, full curve, poor fit]"
Cc1cc(C)c(OCC(O)CNC(C)(C)C)c(C)c1 (stereo not given),,"inconclusive: 18.3 µM [inhibitor, single point]"
COc1ccc(-c2c(=O)n(OCc3ccccc3[N+](=O)[O-])c3ccccc3[n+]2[O-])c(OC)c1,,"inconclusive: 23.1 µM [inhibitor, single point]"
CC[n+]1c(/C=C/C=C/c2ccc(N(C)C)cc2)sc2ccccc21,,active: 1.78 µM
CCOc1cc(C#N)c(NC(=O)c2ccc(OC)c(S(=O)(=O)N3CCCC3)c2)cc1OCC,,"inconclusive: 1.26 µM [inhibitor, partial curve, poor fit]"

SMILES,"activity change, negative = inhibition",Potency
Cc1ccc(-n2c(SCC(=O)N3CC(=O)Nc4ccccc43)nc3ccccc3c2=O)cc1,,"inconclusive: 17.8 µM [inhibitor, single point]"
Cc1ccc(NC(=S)Nc2cccc(S(=O)(=O)Nc3c(C)n(C)n(-c4ccccc4)c3=O)c2)cc1,,"inconclusive: 6.31 µM [inhibitor, single point]"
O=C(CCl)N1c2ccccc2Oc2ccc3ccccc3c21,,"inconclusive: 11.2 µM [activator, partial curve]"
COc1ccc(Br)cc1-c1noc(-c2ccncc2)n1,,"inconclusive: 0.251 µM [inhibitor, full curve, poor fit]"
CN(C)c1ccc(/C=N/NC(=O)c2ccccc2O)o1,inactive: 4.79% [at 46.1 µM],
COc1ccc(NC(=O)CCN2CCN(S(=O)(=O)c3ccc(C(C)C)cc3)CC2)cc1,inactive: -26.3%,
CN(C)C(=S)Nc1ccc([N+](=O)[O-])cc1,inactive: 22.4%,
COc1ccc(-c2nc3ccccc3nc2-c2ccccc2)cc1,inactive: -18.8% [at 46.1 µM],
OCCN1CCOCCN(CCO)CCOCC1,,"inconclusive: 31.6 µM [inhibitor, single point]"
Nc1ncnc2c1c(-c1ccc(Oc3ccccc3)cc1)cn2C1CCCC1,,"inactive and inconclusive: 1.58 µM [activator, partial curve, poor fit]"
CCC(CO)Nc1nc(CN2CCCCC2)nc2scc(-c3ccccc3)c12 (stereo not given),,"inconclusive: 7.08 µM [inhibitor, partial curve, poor fit]"
CCOc1ccccc1NC(=O)C1CCCN(S(=O)(=O)c2ccc(OC)c(C)c2)C1 (stereo not given),,"inconclusive: 14.1 µM [inhibitor, partial curve, poor fit]"
CC(Oc1ccc(-c2ccccc2)c(F)c1)c1ccn(S(=O)(=O)c2ccc(Br)cc2)n1 (stereo not given),,"inconclusive: 25.9 µM [inhibitor, single point]"
CCOc1ccc(CNC(=O)C(=O)c2cn(CC(=O)N3CCOCC3)c3ccccc23)cc1OC,inactive: 11.6%,
O=C(CN(C(=O)c1cc2c(s1)CCC2)C1CCCC1)NCc1cccs1,,"inconclusive: 29.1 µM [inhibitor, single point]"
CC(NC(=O)C12CC3CC(CC(C3)C1)C2)C(=O)NN=Cc1ccc([N+](=O)[O-])o1 (stereo not given),,"inconclusive: 17.8 µM [inhibitor, single point]"
CCOc1ccc(CCNC(=O)C2=C(C)C(=O)OC23CCC(C)CC3)cc1OCC (stereo not given),,"inconclusive: 4.47 µM [inhibitor, single point]"
O=C(/C=C/c1ccco1)N1CCC(Cc2ccccc2)CC1,,"inconclusive: 17.8 µM [activator, single point]"
O=C(O)/C=C\C(=O)Nc1ccccc1C(=O)NCc1ccccc1,,"inconclusive: 11.2 µM [inhibitor, single point]"
CC(C)Oc1ccc(CCc2n[nH]c(=S)n2Cc2ccccc2)cc1,,"inconclusive: 14.6 µM [inhibitor, partial curve]"
O=C(Cn1cnc2ccccc2c1=O)NCc1cccs1,inactive: 9.67% [at 46.1 µM],
Cc1cccc(-c2noc(CN(C(=O)c3ccc(C)c(C)c3)C(C)C)n2)c1,inactive: -16.3% [at 46.1 µM],
Cc1ccc(NC(=O)c2ncn(-c3ccccc3)n2)c(Cl)c1,,"inconclusive: 5.62 µM [activator, single point]"
O=C(O)CC1SC(=O)N(Cc2ccccc2)C1=O (stereo not given),,"inconclusive: 14.1 µM [activator, single point]"

# Some of the entries so far, with bars between the fields:
SMILES | activity change, negative = inhibition | Potency
O=C(COC(=O)C12CC3CC(CC(C3)C1)C2)Nc1ccccc1F |  | inconclusive: 0.501 µM [inhibitor, partial curve, poor fit]
Cc1cccc(C)c1NS(=O)(=O)c1ccc(OCCNS(C)(=O)=O)cc1 | inactive: -21.3% [at 46.1 µM] | 
COc1cc2c(cc1OC)C1O[C@](c3ccsc3)(C2)Oc2cc(-c3ccccc3)oc(=O)c21 |  | inconclusive: 0.0119 µM [inhibitor, full curve, poor fit]
COc1ccc(C)cc1S(=O)(=O)N(CC(=O)Nc1ccc2c(c1)OCCO2)Cc1ccccc1 |  | inconclusive: 16.4 µM [inhibitor, partial curve]
COc1ccccc1C(=O)COC(=O)CN1C(=O)C2CC=CCC2C1=O (stereo not given) | inactive: -1.8% [at 46.1 µM] | 
O=[N+]([O-])c1cccc(S(=O)(=O)NCc2ccncc2)c1 | inactive: -3.83% [at 46.1 µM] | 
O=C(Cc1cccs1)N(Cc1ccco1)C1(C(=O)NC2CCCCC2)CCCCC1 |  | inconclusive: 0.651 µM [inhibitor, full curve, poor fit]
Cc1cc(C)c(OCC(O)CNC(C)(C)C)c(C)c1 (stereo not given) |  | inconclusive: 18.3 µM [inhibitor, single point]
COc1ccc(-c2c(=O)n(OCc3ccccc3[N+](=O)[O-])c3ccccc3[n+]2[O-])c(OC)c1 |  | inconclusive: 23.1 µM [inhibitor, single point]
CC[n+]1c(/C=C/C=C/c2ccc(N(C)C)cc2)sc2ccccc21 |  | active: 1.78 µM
CCOc1cc(C#N)c(NC(=O)c2ccc(OC)c(S(=O)(=O)N3CCCC3)c2)cc1OCC |  | inconclusive: 1.26 µM [inhibitor, partial curve, poor fit]
Cc1ccc(-n2c(SCC(=O)N3CC(=O)Nc4ccccc43)nc3ccccc3c2=O)cc1 |  | inconclusive: 17.8 µM [inhibitor, single point]
Cc1ccc(NC(=S)Nc2cccc(S(=O)(=O)Nc3c(C)n(C)n(-c4ccccc4)c3=O)c2)cc1 |  | inconclusive: 6.31 µM [inhibitor, single point]
O=C(CCl)N1c2ccccc2Oc2ccc3ccccc3c21 |  | inconclusive: 11.2 µM [activator, partial curve]
COc1ccc(Br)cc1-c1noc(-c2ccncc2)n1 |  | inconclusive: 0.251 µM [inhibitor, full curve, poor fit]
CN(C)c1ccc(/C=N/NC(=O)c2ccccc2O)o1 | inactive: 4.79% [at 46.1 µM] | 
COc1ccc(NC(=O)CCN2CCN(S(=O)(=O)c3ccc(C(C)C)cc3)CC2)cc1 | inactive: -26.3% | 
CN(C)C(=S)Nc1ccc([N+](=O)[O-])cc1 | inactive: 22.4% | 

# More entries follow:

SMILES,"activity change, negative = inhibition",Potency
O=C1CC(C(=O)Nc2ccc(F)cc2)n2cnnc2N1 (stereo not given),inactive: 3.97% [at 46.1 µM],
CCOC(=O)c1c(C)[nH]c(C)c1C(=O)COC(=O)c1cc2ccccc2cc1O,,"inconclusive: 35.5 µM [inhibitor, partial curve, poor fit]"
C#CC1(O)C2C=C(OC)C(=O)C1C(c1ccccc1)C2C (stereo not given),inactive: 26% [at 14.2 µM],
Cc1cc(Oc2ccccc2F)nc(NCc2ccccc2)n1,,"inconclusive: 15.8 µM [inhibitor, single point]"
CS(=O)(=O)N1N=C(c2ccc(Cl)cc2)CC1c1cccs1 (stereo not given),inactive: -16.2%,
NCCCCNS(=O)(=O)c1cccc2c(Cl)cccc12,,active: 3.98 µM
Cc1ccc(NS(=O)(=O)c2cccc(C(=O)N3CCCCCCC3)c2)cc1,,"inconclusive: 8.91 µM [inhibitor, partial curve]"
Cc1cc2c(ncn2Cc2ccccc2)c(N)c1C,,"inconclusive: 35.5 µM [inhibitor, single point]"
COc1ccccc1C(=O)OCCc1ccccc1,,"inconclusive: 12.6 µM [activator, partial curve, poor fit]"
CCC(=O)N1CCc2cc(Br)cc(S(=O)(=O)N(C)c3ccc(OC)cc3)c21,,"inconclusive: 31.6 µM [inhibitor, single point]"
O=C(Cc1c(F)cccc1Cl)NC1=NCCS1,,"inconclusive: 1.58 µM [activator, full curve, poor fit]"
C=CCc1cc(/C=C2/NC(=O)NC2=O)cc(OCC)c1O,inactive: -5.8% [at 46.1 µM],
c1csc(-c2nc3c4ccccc4c4ccccc4c3[nH]2)c1,,"inconclusive: 0.282 µM [inhibitor, full curve, poor fit]"
COc1ccc(NC(=O)NNC(=O)COc2ccc([N+](=O)[O-])c(C)c2)cc1OC,,"inconclusive: 5.62 µM [inhibitor, single point]"
COc1ccc(CCN(C)CC(=O)Nc2ccc(F)c(Cl)c2)cc1OC,,"inconclusive: 35.5 µM [inhibitor, single point]"
O=C(N1CCOCC1)N(CCN1CCOCC1)Cc1cccc2ccccc12,,"inconclusive: 3.98 µM [inhibitor, single point]"
Cc1ccc(S(=O)(=O)NCCc2ccncc2)cc1,,"inconclusive: 20.6 µM [activator, partial curve]"
COc1ccccc1N1CCN(Cc2ccc(OC)c(OC)c2OC)CC1,,"inconclusive: 0.116 µM [inhibitor, full curve, poor fit]"
Cc1noc(/C=C/N(C)C)c1S(=O)(=O)N1CCCC(C(=O)Nc2cccc(F)c2)C1 (stereo not given),inactive: -19.2% [at 46.1 µM],
O=S(=O)(Cc1ccc(Cl)cc1)Oc1ccc(Cl)cc1,,"inconclusive: 35.5 µM [inhibitor, single point]"
CC(C)(C)n1cc(C(=O)c2ccc3ccccc3c2O)cn1,,active: 3.98 µM
c1ccc(Oc2cc(-n3cccn3)ncn2)cc1,,"inconclusive: 1.26 µM [activator, single point]"
